The list shows only some results of the screen, not a fair sample: it gathers tests that were run many times, whatever their T/C, doses with no T/C, and many T/C values between a quarter and a half above the control. Further doses and runs are listed elsewhere. T/C: endpoint of the treated group in % of that of the vehicle group. Some doses have a count of surviving animals in place of a T/C: the source holds a T/C of zero for them, seemingly a mark for toxic or unscored doses. Some survivor counts are full or nearly so, which does not show that the dose was tolerated: the source hardly ever lists a survival T/C far under the control, and the zero likely stands for such cases as well. Survivors were counted at the toxicity check, usually on the fifth day, unless a day is given; later deaths do not show. Schedule codes are those of the source, read here as Q, the interval in days (D) or hours (H), X, the number of doses. Some structures stand for samples that the source files as different forms (salt, stereo form or complex); doses refer to the form tested. For survival time, the PubChem record calls one and a half times the control and up active, and a quarter to a half above the control has no call in these data; cut-offs in other NCI protocols can differ. Some doses were run more than once; the results are listed from low to high. Counts like (3×) stand for listed records that agree. Some T/C values are followed by the survivors on the day toxicity was checked, most often the fifth; where none is given, no animal had died by that day.

This assay deals with L1210 leukemia ip in BDF1 mice, survival T/C. Briefly: NCI In Vivo Anticancer Drug Screen. Data for tumor model L1210 Leukemia (intraperitoneal) in B6D2F1 (BDF1) mice. The note with it: T/C endpoint: mean survival time, higher T/C = longer survival.
Where [1] appears, read: dose: 200.0 mg/kg/injection, schedule: Q04DX003 (ip), vehicle: saline with Tween-80.
Setting [2] is: dose: 400.0 mg/kg/injection, schedule: Q04DX003 (ip), vehicle: saline with Tween-80.
Setting [3] is: dose: 200.0 mg/kg/injection, schedule: Q04DX002 (ip), vehicle: saline.
Where [4] appears, read: dose: 400.0 mg/kg/injection, schedule: Q04DX002 (ip), vehicle: saline.
Setting [5] is: dose: 400.0 mg/kg/injection, schedule: Q04DX002 (ip), vehicle: saline with Tween-80.
Setting [6] is: dose: 100.0 mg/kg/injection, schedule: Q01DX009 (ip), vehicle: Klucel (hydroxypropylcellulose) (HPC).
[7] abbreviates: dose: 200.0 mg/kg/injection, schedule: Q01DX009 (ip), vehicle: Klucel (hydroxypropylcellulose) (HPC).
Setting [8] is: dose: 400.0 mg/kg/injection, schedule: Q01DX009 (ip), vehicle: saline with Tween-80.
Setting [9] is: dose: 400.0 mg/kg/injection, schedule: Q01DX009 (ip), vehicle: Klucel (hydroxypropylcellulose) (HPC).
[10] abbreviates: dose: 100.0 mg/kg/injection, schedule: Q04DX003 (ip), vehicle: Klucel (hydroxypropylcellulose) (HPC).
Where [11] appears, read: dose: 200.0 mg/kg/injection, schedule: Q04DX003 (ip), vehicle: Klucel (hydroxypropylcellulose) (HPC).
[12] abbreviates: dose: 400.0 mg/kg/injection, schedule: Q04DX003 (ip), vehicle: Klucel (hydroxypropylcellulose) (HPC).

For the molecule `CCN1CCC(CNc2cc(C)nc(/N=C(\N)Nc3ccc(Cl)c(Cl)c3)n2)C1` (centres undefined), the survivor count by setting is: (dose: 100.0 mg/kg/injection, schedule: Q04DX003 (ip), vehicle: saline with Tween-80) 3 of 6; under setting [1], 1 of 6; under setting [2], 0 of 6.

Consider `NNC(N)=S`, for which the survivor count runs as follows: (dose: 25.0 mg/kg/injection, schedule: Q04DX003 (ip), vehicle: saline) 1 of 6; (dose: 100.0 mg/kg/injection, schedule: Q04DX002 (ip), vehicle: saline) 0 of 3; under setting [3], 0 of 3; under setting [4], 0 of 3.

With `O=S(=O)(CCCl)Cc1ccccc1`, the survivor count under setting [5] is 0 of 3.

With `CC1S(=O)(=O)CC(NC(=O)N(CCCl)N=O)CS1(=O)=O` (centres undefined), the T/C reads like this: (dose: 2.4 mg/kg/injection, schedule: Q01DX001 (ip), vehicle: saline with Tween-80) 131 and 142 % of control; (dose: 3.5 mg/kg/injection, schedule: Q01DX001 (ip), vehicle: saline with Tween-80) 130 % of control. The survivor count (dose: 135.0 mg/kg/injection, schedule: Q01DX001 (ip), vehicle: saline with Tween-80) is 1 of 10.

Turning to `O=c1oc2ccccc2c(O)c1Cc1c(O)c2ccccc2oc1=O`, the survivor count was 3 of 3 under setting [6] and 0 of 3 under setting [7].

Regarding `Cc1ccc(NC(=S)NC(=O)c2cccc([N+](=O)[O-])c2)cc1C`, the T/C reads like this: (dose: 100.0 mg/kg/injection, schedule: Q01DX009 (ip), vehicle: saline with Tween-80) 93, 94, 102, 105 % of control; (dose: 200.0 mg/kg/injection, schedule: Q01DX009 (ip), vehicle: saline with Tween-80) 87, 102, 105 % of control (2×); under setting [8], 87, 91, 92 [5 of 6 alive], 96 % of control.

As for `N/C(=N\OC(=O)Nc1cccc(Cl)c1)C(Cl)(Cl)Cl`, the survivor count reads like this: under setting [6], 1 of 6; under setting [7], 0 of 6; under setting [9], 0 of 6.

On to `O=C(CC(O)c1ccccc1)Nc1cccnc1` (centres undefined), for which the survivor count was 0 of 4 (dose: 200.0 mg/kg/injection, schedule: Q01DX001 (ip), vehicle: other) and 0 of 4 (dose: 400.0 mg/kg/injection, schedule: Q01DX001 (ip), vehicle: other).

In the case of `CC1(C)Cc2cccc(OC(N)=O)c2O1`, the survivor count is 0 of 6 (dose: 12.5 mg/kg/injection, schedule: Q04DX003 (ip), vehicle: Klucel (hydroxypropylcellulose) (HPC)); 0 of 6 (dose: 25.0 mg/kg/injection, schedule: Q04DX003 (ip), vehicle: Klucel (hydroxypropylcellulose) (HPC)); 0 of 6 (dose: 50.0 mg/kg/injection, schedule: Q04DX003 (ip), vehicle: Klucel (hydroxypropylcellulose) (HPC)); 0 of 6 under setting [10]; 0 of 6 under setting [11]; 0 of 6 under setting [12].

As for `CCCCCC(=O)C#Cc1ccccc1`, the survivor count runs as follows: (dose: 200.0 mg/kg/injection, schedule: Q01DX009 (ip), vehicle: other) 2 of 6; (dose: 400.0 mg/kg/injection, schedule: Q01DX009 (ip), vehicle: other) 0 of 6.

On to `CCCCCCCCCCCCCCCC(=O)Nc1cccc(C)c1C`, for which, under setting [5], the survivor count is listed as 3 of 3.

Consider `CCOc1ccccc1NC(=O)c1ccc(Cl)cc1Cl`, for which the survivor count by setting is: under setting [11], 6 of 6; under setting [12], 6 of 6.

Take `CC1=CC(C(=O)O)P(C)(=O)C1` (centres undefined): the survivor count (dose: 200.0 mg/kg/injection, schedule: Q04DX002 (ip), vehicle: saline with Tween-80) is on record as 3 of 3.

As to `CCOC(=O)c1ccc(NC(=O)N(CCCl)N=O)cc1`, the T/C reads like this: (dose: 3.0 mg/kg/injection, schedule: Q01DX001 (ip), vehicle: carboxymethylcellulose (CMC)) 126 % of control; (dose: 4.0 mg/kg/injection, schedule: Q01DX001 (ip), vehicle: carboxymethylcellulose (CMC)) 134 % of control; (dose: 6.0 mg/kg/injection, schedule: Q01DX001 (ip), vehicle: carboxymethylcellulose (CMC)) 146 % of control. For the same molecule, the survivor count (dose: 37.5 mg/kg/injection, schedule: Q01DX001 (ip), vehicle: carboxymethylcellulose (CMC)) is given as 2 of 6; the survivor count (dose: 50.0 mg/kg/injection, schedule: Q01DX001 (ip), vehicle: carboxymethylcellulose (CMC)) is recorded as 6 of 6; the survivor count (dose: 100.0 mg/kg/injection, schedule: Q01DX001 (ip), vehicle: carboxymethylcellulose (CMC)) is listed as 3 of 6; the survivor count (dose: 200.0 mg/kg/injection, schedule: Q01DX001 (ip), vehicle: carboxymethylcellulose (CMC)) is 4 of 6; the survivor count (dose: 300.0 mg/kg/injection, schedule: Q01DX001 (ip), vehicle: carboxymethylcellulose (CMC)) is given as 0 of 6; the survivor count (dose: 400.0 mg/kg/injection, schedule: Q01DX001 (ip), vehicle: carboxymethylcellulose (CMC)) is on record as 0 of 6. The survivor count (dose: 500.0 mg/kg/injection, schedule: Q01DX001 (ip), vehicle: carboxymethylcellulose (CMC)) is on record as 0 of 6; the survivor count (dose: 600.0 mg/kg/injection, schedule: Q01DX001 (ip), vehicle: carboxymethylcellulose (CMC)) is 0 of 6; the survivor count (dose: 800.0 mg/kg/injection, schedule: Q01DX001 (ip), vehicle: carboxymethylcellulose (CMC)) is given as 0 of 6; the survivor count (dose: 1000.0 mg/kg/injection, schedule: Q01DX001 (ip), vehicle: carboxymethylcellulose (CMC)) was 0 of 6.

With `CCCCCCCNC(=O)CI`, for the setting “dose: 400.0 mg/kg/injection, schedule: Q01DX001 (ip), vehicle: saline”, the survivor count was 0 of 4.

Turning to `Cc1cc(=O)c2c(C)cccc2[nH]1`, the survivor count reads like this: (dose: 12.5 mg/kg/injection, schedule: Q04DX003 (ip), vehicle: saline with Tween-80) 6 of 6; under setting [10], 6 of 6; under setting [11], 3 of 6; under setting [12], 0 of 6.

On to `CCCN(CCC)N=Nc1ccccc1C(N)=O`, for which the survivor count under setting [8] is 0 of 6.

In the case of `O=CNNc1ccc([N+](=O)[O-])cc1`, the survivor count under setting [9] was 1 of 6.

Regarding `O=C1C(Br)=Cc2cccc3cccc1c23`, the survivor count under setting [11] is reported as 6 of 6.

For `ClCC#Cc1ccccc1`, the survivor count (dose: 100.0 mg/kg/injection, schedule: Q01DX009 (ip), vehicle: saline) is 0 of 6; the survivor count (dose: 200.0 mg/kg/injection, schedule: Q01DX009 (ip), vehicle: saline) was 0 of 6; the survivor count (dose: 400.0 mg/kg/injection, schedule: Q01DX009 (ip), vehicle: saline) is recorded as 2 of 6.

With `CS(=O)c1ncc2cnccn12` (centres undefined), the survivor count is, setting by setting: (dose: 200.0 mg/kg/injection, schedule: Q04DX003 (ip), vehicle: water) 3 of 6; (dose: 400.0 mg/kg/injection, schedule: Q01DX009 (ip), vehicle: water) 0 of 6; (dose: 400.0 mg/kg/injection, schedule: Q04DX003 (ip), vehicle: water) 0 of 6.

As to `CN(C)CCCN=C(N)CCl`, the survivor count under setting [3] was 2 of 3 and the survivor count under setting [4] was 0 of 3.

For `COC(=O)/C(=C1/OC(=O)C(c2ccccc2)=C1O)c1ccccc1`, the survivor count under setting [1] was 1 of 6 and the survivor count under setting [2] is reported as 1 of 6.

For the origin of these results see PubChem BioAssay AID248 (DTP/NCI, 2004).
